Reference: article PMC10967477
These are yes or no findings as the source states them, for the method shown. In cells and extracts the contact can be indirect. Some results given as binding are weak or reduced against the parent protein; the word gives no strength.

T1: Src homology 3-binding protein 2 (SH3BP2) (human (endogenous in human podocytes)) (UniProt P78314)
T1 sequence: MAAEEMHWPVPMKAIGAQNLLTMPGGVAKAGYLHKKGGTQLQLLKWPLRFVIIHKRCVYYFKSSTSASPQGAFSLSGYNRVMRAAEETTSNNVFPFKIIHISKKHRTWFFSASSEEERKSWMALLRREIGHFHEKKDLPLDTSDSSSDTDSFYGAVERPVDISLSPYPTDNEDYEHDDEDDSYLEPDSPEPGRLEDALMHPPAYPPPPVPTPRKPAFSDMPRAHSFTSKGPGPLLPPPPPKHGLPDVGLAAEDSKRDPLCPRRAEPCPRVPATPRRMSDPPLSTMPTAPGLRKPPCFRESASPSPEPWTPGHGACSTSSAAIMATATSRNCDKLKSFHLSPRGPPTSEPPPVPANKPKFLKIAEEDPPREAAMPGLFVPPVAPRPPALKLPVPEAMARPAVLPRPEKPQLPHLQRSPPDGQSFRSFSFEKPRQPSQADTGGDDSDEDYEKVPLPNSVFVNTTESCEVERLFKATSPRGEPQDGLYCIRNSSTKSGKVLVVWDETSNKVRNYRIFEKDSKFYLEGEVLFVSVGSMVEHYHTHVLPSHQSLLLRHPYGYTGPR

T2: Rho-guanine nucleotide exchange factor VAV2 (VAV2) (human (endogenous in human podocytes)) (UniProt P52735)
T2 sequence: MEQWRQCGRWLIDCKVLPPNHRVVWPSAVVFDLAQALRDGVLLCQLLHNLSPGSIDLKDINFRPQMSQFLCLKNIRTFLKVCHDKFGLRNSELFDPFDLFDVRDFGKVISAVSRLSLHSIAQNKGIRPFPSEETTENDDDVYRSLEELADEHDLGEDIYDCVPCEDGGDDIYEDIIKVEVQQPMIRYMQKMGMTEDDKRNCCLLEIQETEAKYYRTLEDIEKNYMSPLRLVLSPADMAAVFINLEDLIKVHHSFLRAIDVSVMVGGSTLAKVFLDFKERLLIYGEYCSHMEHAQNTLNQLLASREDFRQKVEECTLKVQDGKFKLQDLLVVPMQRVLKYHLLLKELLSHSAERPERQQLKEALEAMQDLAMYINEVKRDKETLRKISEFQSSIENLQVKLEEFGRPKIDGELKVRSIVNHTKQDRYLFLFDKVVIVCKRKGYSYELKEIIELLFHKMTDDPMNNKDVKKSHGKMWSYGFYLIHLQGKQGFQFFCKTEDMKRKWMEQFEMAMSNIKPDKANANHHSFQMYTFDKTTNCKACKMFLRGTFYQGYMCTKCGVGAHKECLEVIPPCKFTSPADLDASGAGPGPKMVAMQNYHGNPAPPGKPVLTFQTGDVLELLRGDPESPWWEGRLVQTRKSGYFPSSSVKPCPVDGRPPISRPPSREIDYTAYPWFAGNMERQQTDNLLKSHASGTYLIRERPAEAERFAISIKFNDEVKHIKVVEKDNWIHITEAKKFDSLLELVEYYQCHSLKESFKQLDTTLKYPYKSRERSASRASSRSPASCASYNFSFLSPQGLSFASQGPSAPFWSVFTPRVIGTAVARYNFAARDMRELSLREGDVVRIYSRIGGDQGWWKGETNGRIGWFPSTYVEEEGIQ

T3: phospholipase Cγ2 (PLCγ2) (human (endogenous in human podocytes)) (UniProt P16885)
T3 sequence: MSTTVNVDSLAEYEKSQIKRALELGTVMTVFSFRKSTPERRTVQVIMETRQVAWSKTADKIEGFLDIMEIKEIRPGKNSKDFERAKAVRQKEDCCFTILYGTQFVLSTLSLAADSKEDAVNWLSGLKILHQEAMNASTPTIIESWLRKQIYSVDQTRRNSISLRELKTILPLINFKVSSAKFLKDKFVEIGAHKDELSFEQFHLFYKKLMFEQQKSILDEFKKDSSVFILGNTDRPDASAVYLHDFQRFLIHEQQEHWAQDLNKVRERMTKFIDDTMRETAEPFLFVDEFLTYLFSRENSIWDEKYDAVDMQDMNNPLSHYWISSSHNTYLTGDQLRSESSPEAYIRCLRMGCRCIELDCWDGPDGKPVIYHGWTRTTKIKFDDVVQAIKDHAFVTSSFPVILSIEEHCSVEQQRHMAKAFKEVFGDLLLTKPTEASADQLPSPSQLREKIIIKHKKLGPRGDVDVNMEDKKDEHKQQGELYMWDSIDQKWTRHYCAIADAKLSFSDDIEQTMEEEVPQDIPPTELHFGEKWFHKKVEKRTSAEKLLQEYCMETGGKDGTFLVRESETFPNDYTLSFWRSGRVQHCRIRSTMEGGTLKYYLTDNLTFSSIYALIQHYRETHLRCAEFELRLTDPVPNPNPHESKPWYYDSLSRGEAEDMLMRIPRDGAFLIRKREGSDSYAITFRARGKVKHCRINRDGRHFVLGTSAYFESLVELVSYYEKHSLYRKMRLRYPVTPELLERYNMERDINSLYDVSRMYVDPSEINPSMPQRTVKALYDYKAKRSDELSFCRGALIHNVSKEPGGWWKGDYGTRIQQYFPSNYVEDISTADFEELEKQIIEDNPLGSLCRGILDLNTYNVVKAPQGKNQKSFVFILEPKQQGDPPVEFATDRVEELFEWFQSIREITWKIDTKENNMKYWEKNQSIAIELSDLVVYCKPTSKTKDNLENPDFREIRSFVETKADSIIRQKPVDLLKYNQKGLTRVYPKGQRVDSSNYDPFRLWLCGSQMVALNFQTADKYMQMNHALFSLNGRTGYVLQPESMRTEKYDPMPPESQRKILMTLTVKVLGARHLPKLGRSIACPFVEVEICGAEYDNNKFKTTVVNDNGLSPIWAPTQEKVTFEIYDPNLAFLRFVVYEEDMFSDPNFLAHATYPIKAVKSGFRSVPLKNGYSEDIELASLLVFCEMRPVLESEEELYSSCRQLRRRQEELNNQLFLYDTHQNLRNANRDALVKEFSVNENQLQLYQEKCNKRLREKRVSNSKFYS


What was measured:
Test in all cases: co-IP; endogenous proteins in total protein lysate of untreated (unstimulated) human podocytes; immunoprecipitation with antibodies against SH3BP2, VAV2 or PLCγ2, followed by Western blotting for each protein
[1] = biological target: T1, Src homology 3-binding protein 2 (SH3BP2) (human (endogenous in human podocytes))
[2] = biological target: T2, Rho-guanine nucleotide exchange factor VAV2 (VAV2) (human (endogenous in human podocytes))
[3] = biological target: T3, phospholipase Cγ2 (PLCγ2) (human (endogenous in human podocytes))

| binding [1] | binding [2] | binding [3] | Binder |
| --- | --- | --- | --- |
| binds | binds | – | phospholipase Cγ2 (PLCγ2) (protein, UniProt P16885 1-1265) MSTTVNVDSLAEYEKSQIKRALELGTVMTVFSFRKSTPERRTVQVIMETRQVAWSKTADKIEGFLDIMEIKEIRPGKNSKDFERAKAVRQKEDCCFTILYGTQFVLSTLSLAADSKEDAVNWLSGLKILHQEAMNASTPTIIESWLRKQIYSVDQTRRNSISLRELKTILPLINFKVSSAKFLKDKFVEIGAHKDELSFEQFHLFYKKLMFEQQKSILDEFKKDSSVFILGNTDRPDASAVYLHDFQRFLIHEQQEHWAQDLNKVRERMTKFIDDTMRETAEPFLFVDEFLTYLFSRENSIWDEKYDAVDMQDMNNPLSHYWISSSHNTYLTGDQLRSESSPEAYIRCLRMGCRCIELDCWDGPDGKPVIYHGWTRTTKIKFDDVVQAIKDHAFVTSSFPVILSIEEHCSVEQQRHMAKAFKEVFGDLLLTKPTEASADQLPSPSQLREKIIIKHKKLGPRGDVDVNMEDKKDEHKQQGELYMWDSIDQKWTRHYCAIADAKLSFSDDIEQTMEEEVPQDIPPTELHFGEKWFHKKVEKRTSAEKLLQEYCMETGGKDGTFLVRESETFPNDYTLSFWRSGRVQHCRIRSTMEGGTLKYYLTDNLTFSSIYALIQHYRETHLRCAEFELRLTDPVPNPNPHESKPWYYDSLSRGEAEDMLMRIPRDGAFLIRKREGSDSYAITFRARGKVKHCRINRDGRHFVLGTSAYFESLVELVSYYEKHSLYRKMRLRYPVTPELLERYNMERDINSLYDVSRMYVDPSEINPSMPQRTVKALYDYKAKRSDELSFCRGALIHNVSKEPGGWWKGDYGTRIQQYFPSNYVEDISTADFEELEKQIIEDNPLGSLCRGILDLNTYNVVKAPQGKNQKSFVFILEPKQQGDPPVEFATDRVEELFEWFQSIREITWKIDTKENNMKYWEKNQSIAIELSDLVVYCKPTSKTKDNLENPDFREIRSFVETKADSIIRQKPVDLLKYNQKGLTRVYPKGQRVDSSNYDPFRLWLCGSQMVALNFQTADKYMQMNHALFSLNGRTGYVLQPESMRTEKYDPMPPESQRKILMTLTVKVLGARHLPKLGRSIACPFVEVEICGAEYDNNKFKTTVVNDNGLSPIWAPTQEKVTFEIYDPNLAFLRFVVYEEDMFSDPNFLAHATYPIKAVKSGFRSVPLKNGYSEDIELASLLVFCEMRPVLESEEELYSSCRQLRRRQEELNNQLFLYDTHQNLRNANRDALVKEFSVNENQLQLYQEKCNKRLREKRVSNSKFYS |
| – | binds | binds | Src homology 3-binding protein 2 (SH3BP2) (protein, UniProt P78314 1-561) MAAEEMHWPVPMKAIGAQNLLTMPGGVAKAGYLHKKGGTQLQLLKWPLRFVIIHKRCVYYFKSSTSASPQGAFSLSGYNRVMRAAEETTSNNVFPFKIIHISKKHRTWFFSASSEEERKSWMALLRREIGHFHEKKDLPLDTSDSSSDTDSFYGAVERPVDISLSPYPTDNEDYEHDDEDDSYLEPDSPEPGRLEDALMHPPAYPPPPVPTPRKPAFSDMPRAHSFTSKGPGPLLPPPPPKHGLPDVGLAAEDSKRDPLCPRRAEPCPRVPATPRRMSDPPLSTMPTAPGLRKPPCFRESASPSPEPWTPGHGACSTSSAAIMATATSRNCDKLKSFHLSPRGPPTSEPPPVPANKPKFLKIAEEDPPREAAMPGLFVPPVAPRPPALKLPVPEAMARPAVLPRPEKPQLPHLQRSPPDGQSFRSFSFEKPRQPSQADTGGDDSDEDYEKVPLPNSVFVNTTESCEVERLFKATSPRGEPQDGLYCIRNSSTKSGKVLVVWDETSNKVRNYRIFEKDSKFYLEGEVLFVSVGSMVEHYHTHVLPSHQSLLLRHPYGYTGPR |
| binds | – | binds | Rho-guanine nucleotide exchange factor VAV2 (VAV2) (protein, UniProt P52735 1-878) MEQWRQCGRWLIDCKVLPPNHRVVWPSAVVFDLAQALRDGVLLCQLLHNLSPGSIDLKDINFRPQMSQFLCLKNIRTFLKVCHDKFGLRNSELFDPFDLFDVRDFGKVISAVSRLSLHSIAQNKGIRPFPSEETTENDDDVYRSLEELADEHDLGEDIYDCVPCEDGGDDIYEDIIKVEVQQPMIRYMQKMGMTEDDKRNCCLLEIQETEAKYYRTLEDIEKNYMSPLRLVLSPADMAAVFINLEDLIKVHHSFLRAIDVSVMVGGSTLAKVFLDFKERLLIYGEYCSHMEHAQNTLNQLLASREDFRQKVEECTLKVQDGKFKLQDLLVVPMQRVLKYHLLLKELLSHSAERPERQQLKEALEAMQDLAMYINEVKRDKETLRKISEFQSSIENLQVKLEEFGRPKIDGELKVRSIVNHTKQDRYLFLFDKVVIVCKRKGYSYELKEIIELLFHKMTDDPMNNKDVKKSHGKMWSYGFYLIHLQGKQGFQFFCKTEDMKRKWMEQFEMAMSNIKPDKANANHHSFQMYTFDKTTNCKACKMFLRGTFYQGYMCTKCGVGAHKECLEVIPPCKFTSPADLDASGAGPGPKMVAMQNYHGNPAPPGKPVLTFQTGDVLELLRGDPESPWWEGRLVQTRKSGYFPSSSVKPCPVDGRPPISRPPSREIDYTAYPWFAGNMERQQTDNLLKSHASGTYLIRERPAEAERFAISIKFNDEVKHIKVVEKDNWIHITEAKKFDSLLELVEYYQCHSLKESFKQLDTTLKYPYKSRERSASRASSRSPASCASYNFSFLSPQGLSFASQGPSAPFWSVFTPRVIGTAVARYNFAARDMRELSLREGDVVRIYSRIGGDQGWWKGETNGRIGWFPSTYVEEEGIQ |
